The other results are listed elsewhere or left out. Small differences around the control level are noise.

Chains of the proteins cited; added tags and fusions are not shown. Lines headed by an entry give the natural chain unless they say otherwise; changes in a name come on top.
UniProt Q9NWZ5: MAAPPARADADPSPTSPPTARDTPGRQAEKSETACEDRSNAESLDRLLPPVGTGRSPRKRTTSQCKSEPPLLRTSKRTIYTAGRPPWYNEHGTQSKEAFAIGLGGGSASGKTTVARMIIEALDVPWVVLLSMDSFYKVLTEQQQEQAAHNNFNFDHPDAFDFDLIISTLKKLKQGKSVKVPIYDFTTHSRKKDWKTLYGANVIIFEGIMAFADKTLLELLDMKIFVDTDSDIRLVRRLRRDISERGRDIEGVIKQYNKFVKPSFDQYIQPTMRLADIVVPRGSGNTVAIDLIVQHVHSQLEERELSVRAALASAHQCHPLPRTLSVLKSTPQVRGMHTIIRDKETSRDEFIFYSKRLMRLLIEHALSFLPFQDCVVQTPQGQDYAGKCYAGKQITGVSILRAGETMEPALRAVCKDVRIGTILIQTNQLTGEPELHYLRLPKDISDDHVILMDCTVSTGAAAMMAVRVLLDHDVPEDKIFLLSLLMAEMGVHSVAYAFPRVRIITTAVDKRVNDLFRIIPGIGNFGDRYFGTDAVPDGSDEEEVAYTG
UniProt Q9P265: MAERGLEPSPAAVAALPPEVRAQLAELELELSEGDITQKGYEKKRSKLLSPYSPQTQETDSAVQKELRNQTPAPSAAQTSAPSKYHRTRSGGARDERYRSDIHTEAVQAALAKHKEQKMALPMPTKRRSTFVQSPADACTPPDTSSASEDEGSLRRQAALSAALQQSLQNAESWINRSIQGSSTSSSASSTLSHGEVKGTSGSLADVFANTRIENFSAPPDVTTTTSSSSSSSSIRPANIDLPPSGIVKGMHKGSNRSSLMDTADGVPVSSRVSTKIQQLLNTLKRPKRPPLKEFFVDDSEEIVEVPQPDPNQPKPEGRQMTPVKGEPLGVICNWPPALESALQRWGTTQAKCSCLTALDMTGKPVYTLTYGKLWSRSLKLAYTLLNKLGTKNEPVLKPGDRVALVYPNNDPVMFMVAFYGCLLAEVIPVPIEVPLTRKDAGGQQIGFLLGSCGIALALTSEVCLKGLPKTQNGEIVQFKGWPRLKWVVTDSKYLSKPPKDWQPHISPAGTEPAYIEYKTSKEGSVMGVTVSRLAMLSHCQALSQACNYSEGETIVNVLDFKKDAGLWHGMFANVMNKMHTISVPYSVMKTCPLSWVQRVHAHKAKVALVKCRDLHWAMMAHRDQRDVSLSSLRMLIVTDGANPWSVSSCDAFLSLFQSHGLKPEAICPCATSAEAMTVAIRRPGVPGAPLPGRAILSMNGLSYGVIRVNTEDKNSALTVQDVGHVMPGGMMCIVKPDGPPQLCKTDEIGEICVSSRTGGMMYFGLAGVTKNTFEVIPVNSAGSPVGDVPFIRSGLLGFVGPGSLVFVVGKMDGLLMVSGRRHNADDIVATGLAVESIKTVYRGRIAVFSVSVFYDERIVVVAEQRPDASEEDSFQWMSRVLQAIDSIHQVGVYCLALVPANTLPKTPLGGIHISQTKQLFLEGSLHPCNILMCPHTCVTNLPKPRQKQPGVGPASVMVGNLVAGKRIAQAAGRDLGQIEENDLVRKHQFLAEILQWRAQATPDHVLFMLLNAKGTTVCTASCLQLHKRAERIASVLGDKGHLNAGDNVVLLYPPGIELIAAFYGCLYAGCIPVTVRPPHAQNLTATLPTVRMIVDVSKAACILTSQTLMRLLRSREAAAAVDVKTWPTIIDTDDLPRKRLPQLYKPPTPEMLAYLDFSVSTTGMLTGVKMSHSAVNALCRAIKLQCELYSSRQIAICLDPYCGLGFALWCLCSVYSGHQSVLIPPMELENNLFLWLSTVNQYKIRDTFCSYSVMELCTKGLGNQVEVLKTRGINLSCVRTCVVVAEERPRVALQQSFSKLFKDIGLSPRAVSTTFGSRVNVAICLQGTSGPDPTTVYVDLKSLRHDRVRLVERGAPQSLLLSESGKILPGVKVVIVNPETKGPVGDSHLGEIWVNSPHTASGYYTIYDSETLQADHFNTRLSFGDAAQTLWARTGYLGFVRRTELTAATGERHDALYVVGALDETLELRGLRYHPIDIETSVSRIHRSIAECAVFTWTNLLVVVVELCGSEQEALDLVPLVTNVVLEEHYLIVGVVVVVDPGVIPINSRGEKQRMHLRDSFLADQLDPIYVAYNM
UniProt Q9NXB0: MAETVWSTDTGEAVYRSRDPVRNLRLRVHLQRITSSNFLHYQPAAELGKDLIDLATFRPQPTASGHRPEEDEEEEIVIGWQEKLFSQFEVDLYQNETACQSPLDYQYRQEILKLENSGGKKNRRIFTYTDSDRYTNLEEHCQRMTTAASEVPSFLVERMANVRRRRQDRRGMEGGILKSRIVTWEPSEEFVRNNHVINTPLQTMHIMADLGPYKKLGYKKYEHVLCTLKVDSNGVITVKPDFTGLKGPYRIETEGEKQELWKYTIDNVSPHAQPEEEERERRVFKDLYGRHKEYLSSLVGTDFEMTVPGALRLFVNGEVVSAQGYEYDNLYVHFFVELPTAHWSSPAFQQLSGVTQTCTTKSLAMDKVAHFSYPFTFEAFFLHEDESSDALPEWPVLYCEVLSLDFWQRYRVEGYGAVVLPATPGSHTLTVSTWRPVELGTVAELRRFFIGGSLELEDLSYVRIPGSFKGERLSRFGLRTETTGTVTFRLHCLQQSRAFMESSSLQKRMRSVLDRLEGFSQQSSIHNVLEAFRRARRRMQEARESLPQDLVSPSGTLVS
UniProt Q9UBS0: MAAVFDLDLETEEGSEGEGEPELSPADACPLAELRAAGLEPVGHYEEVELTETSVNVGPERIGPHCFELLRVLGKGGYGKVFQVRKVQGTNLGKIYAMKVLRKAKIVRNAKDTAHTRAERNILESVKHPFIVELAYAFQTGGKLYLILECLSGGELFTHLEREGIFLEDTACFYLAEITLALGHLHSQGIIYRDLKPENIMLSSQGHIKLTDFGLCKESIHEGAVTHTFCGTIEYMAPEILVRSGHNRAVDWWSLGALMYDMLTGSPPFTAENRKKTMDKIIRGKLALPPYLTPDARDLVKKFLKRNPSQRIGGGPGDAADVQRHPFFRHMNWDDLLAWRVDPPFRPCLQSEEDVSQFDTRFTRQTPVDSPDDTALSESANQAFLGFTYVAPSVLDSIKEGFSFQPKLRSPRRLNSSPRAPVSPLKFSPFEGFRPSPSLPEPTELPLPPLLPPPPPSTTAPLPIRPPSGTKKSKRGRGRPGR
UniProt Q9UBF2: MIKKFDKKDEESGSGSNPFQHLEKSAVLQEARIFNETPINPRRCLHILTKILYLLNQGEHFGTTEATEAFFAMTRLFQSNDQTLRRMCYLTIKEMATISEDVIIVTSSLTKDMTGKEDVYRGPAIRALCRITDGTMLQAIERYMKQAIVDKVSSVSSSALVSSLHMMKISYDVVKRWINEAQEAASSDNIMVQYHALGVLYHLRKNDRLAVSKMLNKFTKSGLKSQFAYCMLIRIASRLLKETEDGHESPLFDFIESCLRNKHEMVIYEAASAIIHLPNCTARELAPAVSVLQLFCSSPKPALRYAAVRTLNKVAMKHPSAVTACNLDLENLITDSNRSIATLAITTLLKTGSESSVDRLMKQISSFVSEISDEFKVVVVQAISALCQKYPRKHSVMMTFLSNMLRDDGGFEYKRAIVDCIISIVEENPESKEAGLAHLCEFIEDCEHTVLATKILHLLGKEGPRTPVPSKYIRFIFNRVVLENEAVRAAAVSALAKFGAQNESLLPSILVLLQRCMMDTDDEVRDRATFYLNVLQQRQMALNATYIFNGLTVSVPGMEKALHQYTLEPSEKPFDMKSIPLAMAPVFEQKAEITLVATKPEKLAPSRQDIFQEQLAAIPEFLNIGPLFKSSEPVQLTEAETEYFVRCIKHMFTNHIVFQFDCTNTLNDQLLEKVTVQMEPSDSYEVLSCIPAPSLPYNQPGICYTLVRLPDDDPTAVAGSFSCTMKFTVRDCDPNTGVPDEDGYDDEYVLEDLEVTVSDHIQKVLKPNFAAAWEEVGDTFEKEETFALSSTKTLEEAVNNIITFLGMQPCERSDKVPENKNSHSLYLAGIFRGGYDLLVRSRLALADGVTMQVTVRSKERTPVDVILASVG
UniProt Q9P1U0, whole entry: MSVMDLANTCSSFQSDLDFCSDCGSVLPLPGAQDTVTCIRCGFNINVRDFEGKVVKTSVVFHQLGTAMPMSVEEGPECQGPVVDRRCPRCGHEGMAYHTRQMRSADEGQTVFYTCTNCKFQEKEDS
UniProt Q9P0M2: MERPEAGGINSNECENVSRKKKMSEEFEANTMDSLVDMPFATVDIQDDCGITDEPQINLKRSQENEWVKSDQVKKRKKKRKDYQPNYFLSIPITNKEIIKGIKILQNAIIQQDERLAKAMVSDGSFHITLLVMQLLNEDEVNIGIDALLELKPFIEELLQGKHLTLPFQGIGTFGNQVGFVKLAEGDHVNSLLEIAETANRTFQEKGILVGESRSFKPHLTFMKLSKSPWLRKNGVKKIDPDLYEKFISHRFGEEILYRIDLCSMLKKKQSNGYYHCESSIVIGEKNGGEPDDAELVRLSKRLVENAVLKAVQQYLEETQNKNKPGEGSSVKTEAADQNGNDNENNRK
UniProt Q9NZI7: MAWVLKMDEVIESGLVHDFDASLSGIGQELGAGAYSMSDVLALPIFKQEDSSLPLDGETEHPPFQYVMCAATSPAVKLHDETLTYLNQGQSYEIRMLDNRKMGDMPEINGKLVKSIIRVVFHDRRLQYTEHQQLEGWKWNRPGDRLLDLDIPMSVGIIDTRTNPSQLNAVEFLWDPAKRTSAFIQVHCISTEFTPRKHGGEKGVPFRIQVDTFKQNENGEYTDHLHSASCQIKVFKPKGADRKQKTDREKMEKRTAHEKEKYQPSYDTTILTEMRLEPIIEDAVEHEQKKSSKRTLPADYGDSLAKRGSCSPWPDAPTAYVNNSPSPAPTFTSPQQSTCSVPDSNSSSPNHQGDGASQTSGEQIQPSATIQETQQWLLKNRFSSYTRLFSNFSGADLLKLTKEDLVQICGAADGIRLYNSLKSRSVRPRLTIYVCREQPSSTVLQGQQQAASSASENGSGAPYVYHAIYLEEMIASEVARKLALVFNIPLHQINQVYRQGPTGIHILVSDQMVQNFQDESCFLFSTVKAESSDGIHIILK
UniProt Q9NX09: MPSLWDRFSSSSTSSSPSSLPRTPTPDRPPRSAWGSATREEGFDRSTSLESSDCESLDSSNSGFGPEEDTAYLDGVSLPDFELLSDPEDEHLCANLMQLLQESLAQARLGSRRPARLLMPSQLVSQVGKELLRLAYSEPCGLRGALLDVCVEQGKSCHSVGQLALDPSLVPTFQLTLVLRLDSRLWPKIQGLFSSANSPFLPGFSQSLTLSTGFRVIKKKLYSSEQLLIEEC
UniProt Q9UHA4, whole entry: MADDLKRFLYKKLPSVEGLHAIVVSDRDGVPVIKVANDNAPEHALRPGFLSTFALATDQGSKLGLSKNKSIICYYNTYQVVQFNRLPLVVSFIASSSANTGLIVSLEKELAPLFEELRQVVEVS
UniProt Q9UBR2: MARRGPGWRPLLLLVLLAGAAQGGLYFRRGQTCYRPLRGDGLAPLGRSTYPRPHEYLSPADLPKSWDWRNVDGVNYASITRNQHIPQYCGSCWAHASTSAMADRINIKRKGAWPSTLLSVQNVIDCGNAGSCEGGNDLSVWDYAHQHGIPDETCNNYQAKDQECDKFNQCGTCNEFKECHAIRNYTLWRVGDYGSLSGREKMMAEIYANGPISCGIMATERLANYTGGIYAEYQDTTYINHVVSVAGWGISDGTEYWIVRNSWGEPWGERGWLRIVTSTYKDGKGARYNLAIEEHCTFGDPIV
UniProt Q9NYH9: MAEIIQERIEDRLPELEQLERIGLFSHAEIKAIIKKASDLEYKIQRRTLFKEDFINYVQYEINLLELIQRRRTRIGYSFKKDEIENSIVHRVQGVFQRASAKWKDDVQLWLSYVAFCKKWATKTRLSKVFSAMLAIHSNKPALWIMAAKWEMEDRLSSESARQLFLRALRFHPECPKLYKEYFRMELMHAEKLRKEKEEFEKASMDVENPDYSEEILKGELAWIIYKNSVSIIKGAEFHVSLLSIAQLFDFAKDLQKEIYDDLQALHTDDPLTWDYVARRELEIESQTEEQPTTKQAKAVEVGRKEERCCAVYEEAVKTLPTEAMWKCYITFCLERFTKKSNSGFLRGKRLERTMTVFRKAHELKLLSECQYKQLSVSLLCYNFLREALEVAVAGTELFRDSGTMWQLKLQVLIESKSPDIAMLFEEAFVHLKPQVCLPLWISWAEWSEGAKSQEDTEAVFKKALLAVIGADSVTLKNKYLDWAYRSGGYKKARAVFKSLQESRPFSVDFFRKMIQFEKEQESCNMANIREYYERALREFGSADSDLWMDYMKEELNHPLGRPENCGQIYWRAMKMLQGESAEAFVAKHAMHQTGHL
UniProt Q9UBP6: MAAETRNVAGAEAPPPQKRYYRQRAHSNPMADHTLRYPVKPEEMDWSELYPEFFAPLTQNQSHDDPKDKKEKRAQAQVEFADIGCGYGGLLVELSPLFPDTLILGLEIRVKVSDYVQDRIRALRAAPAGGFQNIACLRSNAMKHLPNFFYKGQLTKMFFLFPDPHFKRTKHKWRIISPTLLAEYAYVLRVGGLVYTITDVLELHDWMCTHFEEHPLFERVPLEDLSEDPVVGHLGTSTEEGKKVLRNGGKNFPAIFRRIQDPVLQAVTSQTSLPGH

Compound in this assay: Cc1nc(Nc2ncc(C(=O)Nc3c(C)cccc3Cl)s2)cc(N2CCN(CCO)CC2)n1 [dasatinib]
The experiment in a line: log2 fold change of tryptic peptide abundance, ligand vs vehicle (limited proteolysis) (log2 ratio); higher = more trypsin-susceptible (destabilized). The following applies: ligand concentration: 5 uM; sample: K562 cleared lysate.
Regarding “EPS15L1 (peptide sequence: ALEKEPVPSALPPSLIPPSKR, peptide start residue: 194) (UniProt Q9UBC2)”, the log2 fold change came out at 0.628.
As for “UniProt Q9NZI5 (peptide sequence: RPVLVLQNEALYPQRR, peptide start residue: 9)”, the log2 fold change was 0.887.
As for “UCKL1 (peptide sequence: GSGNTVAIDLIVQHVHSQLEER, peptide start residue: 282) (UniProt Q9NWZ5)”, the figure is -0.337; as for “DIP2B (peptide sequence: NQTPAPSAAQTSAPSKYHR, peptide start residue: 69) (UniProt Q9P265)”, 0.409.
As for “ZMYM2 (peptide sequence: NTLENMLVR, peptide start residue: 1349) (UniProt Q9UBW7)”, the figure is 0.135; as for “SLAIN2 (peptide sequence: LSLQGHPTDLQTSNVKNEEK, peptide start residue: 390) (UniProt Q9P270)”, -0.413; as for “ATXN10 (peptide sequence: ALTALFKEQR, peptide start residue: 28) (UniProt Q9UBB4)”, 0.336.
With “UniProt Q9NXB0 (peptide sequence: TETTGTVTFR, peptide start residue: 480)” the figure was 0.391; with “GDAP2 (peptide sequence: SEDLSDIASLK, peptide start residue: 328) (UniProt Q9NXN4)”, 0.273; with “UniProt Q9UBS0 (peptide sequence: LALPPYLTPDAR, peptide start residue: 286)”, -0.0766.
As to “AHSP (peptide sequence: SHELPSHPPPSS, peptide start residue: 91) (UniProt Q9NZD4)”, the log2 fold change is -0.0819.
With “LIMA1 (peptide sequence: SEISENTDASGKIEK, peptide start residue: 175) (UniProt Q9UHB6)” the figure was 0.202.
Turning to “CHPF2 (peptide sequence: YCHGGFGYLLSR, peptide start residue: 222) (UniProt Q9P2E5)”, the log2 fold change was 0.592.
Take “HDAC6 (peptide sequence: LVDAVLGAEIR, peptide start residue: 194) (UniProt Q9UBN7)”: the log2 fold change came to 0.256.
As for “TUBGCP4 (peptide sequence: ILAVCHGVMYK, peptide start residue: 175) (UniProt Q9UGJ1)”, the figure is -0.104; as for “COPG2 (peptide sequence: DMTGKEDVYR, peptide start residue: 112) (UniProt Q9UBF2)”, -0.293; as for “KLHL8 (peptide sequence: WLLANPQHHSK, peptide start residue: 237) (UniProt Q9P2G9)”, 0.246.
As for “ZNRD1 (peptide sequence: CGHEGMAYHTR, peptide start residue: 90) (UniProt Q9P1U0)”, the log2 fold change was -0.0653.
As for “CCDC59 (peptide sequence: AQEEYEQIQAK, peptide start residue: 172) (UniProt Q9P031)”, the log2 fold change was found to be 0.284.
In the case of “WARS2 (peptide sequence: SDPDKLATVR, peptide start residue: 230) (UniProt Q9UGM6)”, the log2 fold change stood at 0.1.
As for “MRPL39 (peptide sequence: KSILALVDGQPWDMYKPLTK, peptide start residue: 102) (UniProt Q9NYK5)”, the figure is 0.474; as for “SRP68 (peptide sequence: DAIQVVREELKPDQK, peptide start residue: 346) (UniProt Q9UHB9)”, -0.141; as for “UniProt Q9NYU1 (peptide sequence: SFTVSLHK, peptide start residue: 1215)”, -0.0663.
As to “UniProt Q9P0M2 (peptide sequence: SQENEWVK, peptide start residue: 62)”, the log2 fold change amounted to 0.327.
As for “UBP1 (peptide sequence: RLQYTEHQQLEGWK, peptide start residue: 125) (UniProt Q9NZI7)”, the figure is 0.824; as for “DDIT4 (peptide sequence: LAYSEPCGLR, peptide start residue: 134) (UniProt Q9NX09)”, -0.0705.
On to “RNF14 (peptide sequence: ALEEMESKEWLEK, peptide start residue: 387) (UniProt Q9UBS8)”, for which the log2 fold change came to 0.45.
Consider “UVRAG (peptide sequence: HHTSSAIPVPK, peptide start residue: 469) (UniProt Q9P2Y5)”, for which the log2 fold change was -0.585.
For “UniProt Q9UHA4 (peptide sequence: ELAPLFEELR, peptide start residue: 109)”, the log2 fold change is -0.273.
With “TBC1D14 (peptide sequence: LDKHNDLGWK, peptide start residue: 252) (UniProt Q9P2M4)” the figure was -0.655.
For the target “CTSZ (peptide sequence: NQHIPQYCGSCWAHASTSAMADR, peptide start residue: 82) (UniProt Q9UBR2)”, the log2 fold change was 0.198.
As for “UTP6 (peptide sequence: TLPTEAMWK, peptide start residue: 319) (UniProt Q9NYH9)”, the figure is 0.0958; as for “FAM135A (peptide sequence: SSDDCHDHQTTPSLGVR, peptide start residue: 639) (UniProt Q9P2D6)”, -0.344; as for “METTL1 (peptide sequence: VSDYVQDR, peptide start residue: 112) (UniProt Q9UBP6)”, 0.464.
With “NDOR1 (peptide sequence: EPDVSSPTRLPQPCSMR, peptide start residue: 280) (UniProt Q9UHB4)” the figure was -0.648.
As for “PIM2 (peptide sequence: VYSPPEWISR, peptide start residue: 202) (UniProt Q9P1W9)”, the figure is 0.238.
As to “ACTR3B (peptide sequence: HNPVFGVMS, peptide start residue: 410) (UniProt Q9P1U1)”, the log2 fold change is -0.411.

The values above are taken from the supplement of paper PMC12819154, “High-throughput peptide-centric local stability assay extends protein–ligand identification to membrane proteins, tissues and bacteria” (Nature Structural & Molecular Biology, 2025).
